According to article PMC9788671:
These are yes or no findings as the source states them, for the method shown. In cells and extracts the contact can be indirect. Here binding means that the protein was enriched with, or labelled near, the bait; the list need not be complete.

Protein sequences, listed by entry. Tags and fused reporters are not part of them.
UniProt Q9NZV8: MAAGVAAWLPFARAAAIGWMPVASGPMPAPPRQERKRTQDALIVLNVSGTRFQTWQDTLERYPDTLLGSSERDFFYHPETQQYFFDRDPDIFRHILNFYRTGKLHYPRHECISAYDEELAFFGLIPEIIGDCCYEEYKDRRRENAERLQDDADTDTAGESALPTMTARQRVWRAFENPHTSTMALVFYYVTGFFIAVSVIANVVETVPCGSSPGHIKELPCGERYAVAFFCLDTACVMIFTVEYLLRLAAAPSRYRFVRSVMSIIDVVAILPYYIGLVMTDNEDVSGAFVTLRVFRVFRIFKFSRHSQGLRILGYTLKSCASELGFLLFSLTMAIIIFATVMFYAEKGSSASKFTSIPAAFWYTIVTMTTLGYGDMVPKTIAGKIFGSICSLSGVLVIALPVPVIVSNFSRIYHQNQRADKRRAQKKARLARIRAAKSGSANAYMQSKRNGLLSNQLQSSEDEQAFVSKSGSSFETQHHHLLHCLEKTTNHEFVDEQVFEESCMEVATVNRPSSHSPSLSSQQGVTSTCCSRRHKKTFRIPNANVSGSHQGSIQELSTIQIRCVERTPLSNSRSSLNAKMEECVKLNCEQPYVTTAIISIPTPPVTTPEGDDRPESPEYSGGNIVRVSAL

B1: Nefl (protein, UniProt P19527 1-542)
chain: MSSFSYEPYFSTSYKRRYVETPRVHISSVRSGYSTARSAYSSYSAPVSSSLSVRRSYSSSSGSLMPSLENLDLSQVAAISNDLKSIRTQEKAQLQDLNDRFASFIERVHELEQQNKVLEAELLVLRQKHSEPSRFRALYEQEIRDLRLAAEDATNEKQALQGEREGLEETLRNLQARYEEEVLSREDAEGRLMEARKGADEAALARAELEKRIDSLMDEIAFLKKVHEEEIAELQAQIQYAQISVEMDVSSKPDLSAALKDIRAQYEKLAAKNMQNAEEWFKSRFTVLTESAAKNTDAVRAAKDEVSESRRLLKAKTLEIEACRGMNEALEKQLQELEDKQNADISAMQDTINKLENELRSTKSEMARYLKEYQDLLNVKMALDIEIAAYRKLLEGEETRLSFTSVGSITSGYSQSSQVFGRSAYSGLQSSSYLMSARAFPAYYTSHVQEEQSEVEETIEATKAEEAKDEPPSEGEAEEEEKEKEEGEEEEGAEEEEAAKDESEDAKEEEGGEGEEEDTKESEEEEKKEESAGEEQAAKKKD
B2: Taok1 (protein, UniProt O88664 1-1001)
chain: MPSTNRAGSLKDPEIAELFFKEDPEKLFTDLREIGHGSFGAVYFARDVRTNEVVAIKKMSYSGKQSTEKWQDIIKEVKFLQRIKHPNSIEYKGCYLREHTAWLVMEYCLGSASDLLEVHKKPLQEVEIAAITHGALQGLAYLHSHTMIHRDIKAGNILLTEPGQVKLADFGSASMASPANSFVGTPYWMAPEVILAMDEGQYDGKVDVWSLGITCIELAERKPPLFNMNAMSALYHIAQNESPTLQSNEWSDYFRNFVDSCLQKIPQDRPTSEELLKHMFVLRERPETVLIDLIQRTKDAVRELDNLQYRKMKKLLFQEAHNGPAVEAQEEEEEQDHGGGRTGTVNSVGSNQSIPSMSISASSQSSSVNSLPDASDDKSELDMMEGDHTVMSNSSVIHLKPEEENYQEEGDPRTRASAPQSPPQVSRHKSHYRNREHFATIRTASLVTRQMQEHEQDSELREQMSGYKRMRRQHQKQLMTLENKLKAEMDEHRLRLDKDLETQRNNFAAEMEKLIKKHQASMEKEAKVMANEEKKFQQHIQAQQKKELNSFLESQKREYKLRKEQLKEELNENQSTPKKEKQEWLSKQKENIQHFQAEEEANLLRRQRQYLELECRRFKRRMLLGRHNLEQDLVREELNKRQTQKDLEHAMLLRQHESMQELEFRHLNTIQKMRCELIRLQHQTELTNQLEYNKRRERELRRKHVMEVRQQPKSLKSKELQIKKQFQDTCKIQTRQYKALRNHLLETTPKSEHKAVLKRLKEEQTRKLAILAEQYDHSINEMLSTQALRLDEAQEAECQVLKMQLQQELELLNAYQSKIKMQAEAQHDRELRELEQRVSLRRALLEQKIEEEMLALQNERTERIRSLLERQAREIEAFDSESMRLGFSNMVLSNLSPEAFSHSYPGASSWSHNPTGGSGPHWGHPMGGTPQAWGHPMQGGPQPWGHPSGPMQGVPRGSSIGVRNSPQALRRTASGGRTEQGMSRSTSVTSQISNGSHMSYT
B3: Dnajc16 (protein, UniProt Q5FVM7 26-771)
chain: LDFDPYRVLGVSRTASQADIKKAYKKLAREWHPDKNKDPGAEDKFIQISKAYEILSNEEKRTNYDHYGDAGENQGYQQQREYRFRHFHENFYFDESFFHFPFNSERRDSIDEKYLLHFSHYVNEVVPDSFKKPYLIKITSDWCFSCIHIEPIWKEVVQELEGLGVGIGVVHAGYERRLAHHLGAHSTPSILGIINGKISFFHNAVVHENLRQFVESLLPGNLVEKVTNKNYVRFLSGWQQENKPHALLFGQTPAAPLLYKLTAFAYKDYVSFGYVYVGLRGVEEMTRQYNVNIYAPTMLIFKEHINKPADAIQARGLKKQVIEDFITQNKYLLASRLTSQKLFHELCPVKRSHRQRKYCVVLLTAEANKLSKPFDAFLSFALANTQDTVRFVHVYSSRQQEFASTLLPDIEAFQGKSGVSILERRNTAGRVVFKTLEDPWTGSESDKFVLLGYLDQLRKDPAFLSSEAVLPDLTDELAPVFLLRWLYSVSDYLSDFWESLLHSNWREMMPLLSLIFSALFILFGTVIVQAFSDSNEERESHPPDKEEVPEKAGKTEPSFTKESSSKIPKKGFVEVTELTDVTYTSNLVRLRPGHMNVVLILSNSTKTSLLQKFALEVYTFTGSSSLHFSFLTLDKHREWLEYLLEFAQDAAPIPNQYDKHFMERDYTGYVLALNGHKKYFCLFKPLKTVDEETVGSCDLDSSRGKPPCGLGPKPLKGKLSKLSLWMERLLEGSLQRFYIPSWPELD

Target: TAP-Kv4.2 (human) (UniProt Q9NZV8)
Assay: affinity purification with mass spectrometry; TAP-Kv4.2 expressed by lentivirus in rat hippocampal neurons, harvested at DIV14; weak lysis buffer of the kit (0.1% NP-40); streptavidin resin, then calmodulin resin; gel cut into high and low molecular weight fragments; no MS of the control sample

binding | Binder
binds | B1
binds | B2
binds | B3
